From the supplement of paper PMC7661543
± gives the standard deviation of the averaged measurements. The effect of the compound repeats well; differences between the knockouts mostly do not.

System: BT-20
Assay: relative cell number vs DMSO control (72 h) (% of DMSO); higher = less growth inhibition (more cells)
Description: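 QMAP-Seq: a pool of 5 breast cancer cell lines (ZR-75-1, SKBR3, HCC-38, MDA-MB-231, BT-20), each carrying 12 doxycycline-inducible Cas9 sgRNA perturbations (11 knockouts plus non-targeting sgNT), was treated with compounds for 72 h at four 10-fold doses (10 nM-10 uM or 1 nM-1 uM range). Barcodes were amplified and sequenced, and cell number was interpolated from 293T spike-in standard curves. The result is expressed as % of the median of DMSO wells. Two biological replicates.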

[1] = sgRNA knockout: sgATF3, 1000 nM
[2] = sgRNA knockout: sgATF3, 10000 nM
[3] = sgRNA knockout: sgATF4, 1000 nM
[4] = sgRNA knockout: sgATF4, 10000 nM
[5] = sgRNA knockout: sgATF6, 1000 nM
[6] = sgRNA knockout: sgATF6, 10000 nM
[7] = sgRNA knockout: sgATG7, 1000 nM
[8] = sgRNA knockout: sgATG7, 10000 nM
[9] = sgRNA knockout: sgERN1, 1000 nM
[10] = sgRNA knockout: sgERN1, 10000 nM
[11] = sgRNA knockout: sgHSF1, 1000 nM
[12] = sgRNA knockout: sgHSF1, 10000 nM
[13] = sgRNA knockout: sgHSF2, 1000 nM
[14] = sgRNA knockout: sgHSF2, 10000 nM
[15] = sgRNA knockout: sgKEAP1, 100 nM
[16] = sgRNA knockout: sgKEAP1, 1000 nM
[17] = sgRNA knockout: sgKEAP1, 10000 nM
[18] = sgRNA knockout: sgNFE2L2, 10 nM
[19] = sgRNA knockout: sgNFE2L2, 100 nM
[20] = sgRNA knockout: sgNFE2L2, 1000 nM
[21] = sgRNA knockout: sgNFE2L2, 10000 nM
[22] = sgRNA knockout: sgSLC35F2, 10 nM
[23] = sgRNA knockout: sgSLC35F2, 100 nM
[24] = sgRNA knockout: sgSLC35F2, 1000 nM
[25] = sgRNA knockout: sgSLC35F2, 10000 nM
[26] = sgRNA knockout: sgXBP1, 1000 nM
[27] = sgRNA knockout: sgXBP1, 10000 nM

CCOC(=O)[C@@]1(CCCCCCOc2ccc(Cl)cc2)CO1 [Etomoxir]
relative cell number (sgRNA knockout: sgATF3, 10 nM): 87.1 ± 3
relative cell number (sgRNA knockout: sgATF3, 100 nM): 91.6 ± 8.5
relative cell number [1]: 109 ± 2.6
relative cell number [2]: 101 ± 24
relative cell number (sgRNA knockout: sgATF4, 10 nM): 102 ± 5.8
relative cell number (sgRNA knockout: sgATF4, 100 nM): 102.95 ± 0.096
relative cell number [3]: 112 ± 4.1
relative cell number [4]: 115 ± 11
relative cell number (sgRNA knockout: sgATF6, 10 nM): 82.8 ± 4.2
relative cell number (sgRNA knockout: sgATF6, 100 nM): 103 ± 1.2
relative cell number [5]: 99.1 ± 10
relative cell number [6]: 91.9 ± 11
relative cell number (sgRNA knockout: sgATG7, 10 nM): 82.2 ± 12
relative cell number (sgRNA knockout: sgATG7, 100 nM): 101 ± 7
relative cell number [7]: 99.6 ± 25
relative cell number [8]: 104 ± 2
relative cell number (sgRNA knockout: sgERN1, 10 nM): 98.4 ± 4.1
relative cell number (sgRNA knockout: sgERN1, 100 nM): 92.2 ± 1.5
relative cell number [9]: 104 ± 11
relative cell number [10]: 93 ± 14
relative cell number (sgRNA knockout: sgHSF1, 10 nM): 83.78 ± 0.12
relative cell number (sgRNA knockout: sgHSF1, 100 nM): 94.6 ± 4.6
relative cell number [11]: 103 ± 4.8
relative cell number [12]: 101 ± 8.6
relative cell number (sgRNA knockout: sgHSF2, 10 nM): 90.8 ± 26
relative cell number (sgRNA knockout: sgHSF2, 100 nM): 102 ± 7.3
relative cell number [13]: 90.8 ± 16
relative cell number [14]: 107 ± 8.1
relative cell number (sgRNA knockout: sgKEAP1, 10 nM): 85.6 ± 9
relative cell number [15]: 96.2 ± 6.3
relative cell number [16]: 106 ± 29
relative cell number [17]: 95.7 ± 1.4
relative cell number [18]: 105 ± 5.2
relative cell number [19]: 91 ± 4.1
relative cell number [20]: 106 ± 14
relative cell number [21]: 89.3 ± 15
relative cell number [22]: 95.1 ± 5.4
relative cell number [23]: 93.6 ± 17
relative cell number [24]: 99.1 ± 21
relative cell number [25]: 95 ± 3.5
relative cell number (sgRNA knockout: sgXBP1, 10 nM): 95.02 ± 0.38
relative cell number (sgRNA knockout: sgXBP1, 100 nM): 91.33 ± 0.28
relative cell number [26]: 107 ± 3.2
relative cell number [27]: 100 ± 13

C=CCn1c(=O)c2cnc(Nc3ccc(N4CCN(C)CC4)cc3)nc2n1-c1cccc(C(C)(C)O)n1 [MK1775]
relative cell number (sgRNA knockout: sgATF3, 10 nM): 95.4 ± 20
relative cell number (sgRNA knockout: sgATF3, 100 nM): 106 ± 15
relative cell number [1]: 44 ± 9.3
relative cell number [2]: 27 ± 3
relative cell number (sgRNA knockout: sgATF4, 10 nM): 70.5 ± 25
relative cell number (sgRNA knockout: sgATF4, 100 nM): 84.4 ± 1.2
relative cell number [3]: 44.5 ± 3.3
relative cell number [4]: 32.9 ± 3.5
relative cell number (sgRNA knockout: sgATF6, 10 nM): 91.6 ± 4.9
relative cell number (sgRNA knockout: sgATF6, 100 nM): 93.98 ± 0.41
relative cell number [5]: 45.7 ± 2.7
relative cell number [6]: 27.7 ± 0.32
relative cell number (sgRNA knockout: sgATG7, 10 nM): 96.3 ± 7.2
relative cell number (sgRNA knockout: sgATG7, 100 nM): 83.3 ± 5
relative cell number [7]: 38.5 ± 3.8
relative cell number [8]: 27.9 ± 4.3
relative cell number (sgRNA knockout: sgERN1, 10 nM): 89.2 ± 2
relative cell number (sgRNA knockout: sgERN1, 100 nM): 95.5 ± 6
relative cell number [9]: 38.8 ± 3.5
relative cell number [10]: 26.5 ± 2.5
relative cell number (sgRNA knockout: sgHSF1, 10 nM): 77.6 ± 4.1
relative cell number (sgRNA knockout: sgHSF1, 100 nM): 91.1 ± 7.6
relative cell number [11]: 41.5 ± 0.99
relative cell number [12]: 27.7 ± 5.5
relative cell number (sgRNA knockout: sgHSF2, 10 nM): 94.1 ± 20
relative cell number (sgRNA knockout: sgHSF2, 100 nM): 84.5 ± 35
relative cell number [13]: 38.6 ± 5.6
relative cell number [14]: 27.4 ± 6.4
relative cell number (sgRNA knockout: sgKEAP1, 10 nM): 90.06 ± 0.3
relative cell number [15]: 90 ± 3.6
relative cell number [16]: 36.424 ± 0.031
relative cell number [17]: 24.4 ± 7.6
relative cell number [18]: 86.9 ± 26
relative cell number [19]: 101.9 ± 0.54
relative cell number [20]: 35.2 ± 5.7
relative cell number [21]: 24 ± 1.1
relative cell number [22]: 82 ± 9.8
relative cell number [23]: 93.1 ± 3.3
relative cell number [24]: 34.8 ± 7.1
relative cell number [25]: 26.6 ± 12
relative cell number (sgRNA knockout: sgXBP1, 10 nM): 89.7 ± 1.3
relative cell number (sgRNA knockout: sgXBP1, 100 nM): 91.2 ± 2.5
relative cell number [26]: 41.1 ± 4.5
relative cell number [27]: 27.8 ± 0.72

CC/C(=C(\c1ccc(O)cc1)c1ccc(OCCN(C)C)cc1)c1ccccc1 [4-Hydroxytamoxifen]
relative cell number (sgRNA knockout: sgATF3, 10 nM): 80.7 ± 6.5
relative cell number (sgRNA knockout: sgATF3, 100 nM): 98.9 ± 14
relative cell number [1]: 98.9 ± 2.3
relative cell number [2]: 72.7 ± 12
relative cell number (sgRNA knockout: sgATF4, 10 nM): 101 ± 19
relative cell number (sgRNA knockout: sgATF4, 100 nM): 94.5 ± 7.4
relative cell number [3]: 99.7 ± 4.9
relative cell number [4]: 87.2 ± 3.7
relative cell number (sgRNA knockout: sgATF6, 10 nM): 96.2 ± 15
relative cell number (sgRNA knockout: sgATF6, 100 nM): 82.47 ± 0.2
relative cell number [5]: 96.1 ± 5.5
relative cell number [6]: 84.1 ± 27
relative cell number (sgRNA knockout: sgATG7, 10 nM): 103.4 ± 0.18
relative cell number (sgRNA knockout: sgATG7, 100 nM): 82.7 ± 15
relative cell number [7]: 81.9 ± 4.1
relative cell number [8]: 77.8 ± 5.6
relative cell number (sgRNA knockout: sgERN1, 10 nM): 109 ± 20
relative cell number (sgRNA knockout: sgERN1, 100 nM): 89.7 ± 2.7
relative cell number [9]: 105 ± 9.5
relative cell number [10]: 80.5 ± 12
relative cell number (sgRNA knockout: sgHSF1, 10 nM): 94.8 ± 8
relative cell number (sgRNA knockout: sgHSF1, 100 nM): 87.9 ± 10
relative cell number [11]: 96.7 ± 9.7
relative cell number [12]: 86.3 ± 13
relative cell number (sgRNA knockout: sgHSF2, 10 nM): 91.4 ± 24
relative cell number (sgRNA knockout: sgHSF2, 100 nM): 79.7 ± 4.3
relative cell number [13]: 92.8 ± 22
relative cell number [14]: 73.6 ± 13
relative cell number (sgRNA knockout: sgKEAP1, 10 nM): 99.7 ± 3.1
relative cell number [15]: 84.1 ± 2.1
relative cell number [16]: 98.9 ± 7.6
relative cell number [17]: 87.2 ± 12
relative cell number [18]: 92.7 ± 17
relative cell number [19]: 90.8 ± 8.4
relative cell number [20]: 98 ± 8.7
relative cell number [21]: 93.1 ± 4.1
relative cell number [22]: 84.6 ± 6.2
relative cell number [23]: 90.7 ± 6.5
relative cell number [24]: 89.5 ± 3.1
relative cell number [25]: 77.4 ± 17
relative cell number (sgRNA knockout: sgXBP1, 10 nM): 99.8 ± 6
relative cell number (sgRNA knockout: sgXBP1, 100 nM): 92.6 ± 16
relative cell number [26]: 97.5 ± 6.6
relative cell number [27]: 81.4 ± 15
